log2 fold change data for 18 targets are collected here from the supplement of paper PMC10849652.

By UniProt entry, the sequences of proteins in these tests, tags left out. Where a name states a change or a piece, a line headed by the entry shows the natural chain unless it says otherwise.
UniProt Q96AG4: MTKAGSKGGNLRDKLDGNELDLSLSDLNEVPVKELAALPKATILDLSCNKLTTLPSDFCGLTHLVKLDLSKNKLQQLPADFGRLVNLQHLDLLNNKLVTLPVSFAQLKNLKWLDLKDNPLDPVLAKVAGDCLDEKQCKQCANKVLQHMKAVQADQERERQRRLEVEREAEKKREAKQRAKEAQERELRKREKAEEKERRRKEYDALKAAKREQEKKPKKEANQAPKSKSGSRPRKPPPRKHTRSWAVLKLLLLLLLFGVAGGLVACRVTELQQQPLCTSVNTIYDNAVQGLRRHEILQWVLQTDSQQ
UniProt P09382, whole entry, looked up: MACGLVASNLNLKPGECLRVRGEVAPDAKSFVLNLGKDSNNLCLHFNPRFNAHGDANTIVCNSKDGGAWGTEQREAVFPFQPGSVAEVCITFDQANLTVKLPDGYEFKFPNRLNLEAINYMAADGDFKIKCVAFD
UniProt O14910: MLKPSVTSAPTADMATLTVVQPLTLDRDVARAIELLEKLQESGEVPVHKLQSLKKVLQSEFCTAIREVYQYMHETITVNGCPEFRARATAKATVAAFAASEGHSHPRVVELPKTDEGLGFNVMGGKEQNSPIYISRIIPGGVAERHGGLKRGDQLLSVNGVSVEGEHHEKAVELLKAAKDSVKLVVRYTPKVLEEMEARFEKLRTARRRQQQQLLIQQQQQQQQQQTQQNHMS
UniProt Q8N9N7: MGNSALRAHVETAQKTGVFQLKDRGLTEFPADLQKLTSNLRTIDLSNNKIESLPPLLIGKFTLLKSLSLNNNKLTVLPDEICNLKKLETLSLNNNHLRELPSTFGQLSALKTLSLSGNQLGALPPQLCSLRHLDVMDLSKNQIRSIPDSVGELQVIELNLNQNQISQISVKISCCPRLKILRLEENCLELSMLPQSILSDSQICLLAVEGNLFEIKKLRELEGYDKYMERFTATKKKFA
UniProt P02545: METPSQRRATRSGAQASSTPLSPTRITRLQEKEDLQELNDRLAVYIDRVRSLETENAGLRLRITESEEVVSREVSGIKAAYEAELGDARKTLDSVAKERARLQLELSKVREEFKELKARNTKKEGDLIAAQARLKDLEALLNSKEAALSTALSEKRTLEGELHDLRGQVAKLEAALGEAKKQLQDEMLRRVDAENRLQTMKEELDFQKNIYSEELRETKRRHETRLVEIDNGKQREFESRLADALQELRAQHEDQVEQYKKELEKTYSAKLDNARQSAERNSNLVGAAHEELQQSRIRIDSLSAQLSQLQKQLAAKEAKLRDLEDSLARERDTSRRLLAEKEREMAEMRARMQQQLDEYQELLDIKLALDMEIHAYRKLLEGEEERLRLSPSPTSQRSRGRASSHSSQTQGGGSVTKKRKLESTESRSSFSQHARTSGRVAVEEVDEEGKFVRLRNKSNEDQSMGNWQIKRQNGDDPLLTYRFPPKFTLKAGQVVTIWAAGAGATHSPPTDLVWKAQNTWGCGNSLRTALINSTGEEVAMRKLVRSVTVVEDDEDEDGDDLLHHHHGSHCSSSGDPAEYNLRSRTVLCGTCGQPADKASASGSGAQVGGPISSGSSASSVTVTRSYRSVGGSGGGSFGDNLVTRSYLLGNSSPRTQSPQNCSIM
UniProt Q03252: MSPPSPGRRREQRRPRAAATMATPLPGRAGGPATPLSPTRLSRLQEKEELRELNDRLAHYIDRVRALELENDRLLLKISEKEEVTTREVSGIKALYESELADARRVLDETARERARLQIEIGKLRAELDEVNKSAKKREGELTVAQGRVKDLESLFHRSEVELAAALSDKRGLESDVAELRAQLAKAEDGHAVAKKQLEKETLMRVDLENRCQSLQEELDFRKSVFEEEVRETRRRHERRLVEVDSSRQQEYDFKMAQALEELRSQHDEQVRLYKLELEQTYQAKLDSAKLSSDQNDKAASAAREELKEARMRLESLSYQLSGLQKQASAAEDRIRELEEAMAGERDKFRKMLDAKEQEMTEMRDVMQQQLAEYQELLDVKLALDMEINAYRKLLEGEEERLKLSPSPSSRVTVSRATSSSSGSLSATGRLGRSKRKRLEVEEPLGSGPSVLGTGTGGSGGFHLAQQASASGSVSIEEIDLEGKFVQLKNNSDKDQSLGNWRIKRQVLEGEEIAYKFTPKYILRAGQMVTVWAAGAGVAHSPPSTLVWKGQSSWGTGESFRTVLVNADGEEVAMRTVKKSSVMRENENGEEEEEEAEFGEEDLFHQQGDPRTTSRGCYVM
UniProt Q8N1G4: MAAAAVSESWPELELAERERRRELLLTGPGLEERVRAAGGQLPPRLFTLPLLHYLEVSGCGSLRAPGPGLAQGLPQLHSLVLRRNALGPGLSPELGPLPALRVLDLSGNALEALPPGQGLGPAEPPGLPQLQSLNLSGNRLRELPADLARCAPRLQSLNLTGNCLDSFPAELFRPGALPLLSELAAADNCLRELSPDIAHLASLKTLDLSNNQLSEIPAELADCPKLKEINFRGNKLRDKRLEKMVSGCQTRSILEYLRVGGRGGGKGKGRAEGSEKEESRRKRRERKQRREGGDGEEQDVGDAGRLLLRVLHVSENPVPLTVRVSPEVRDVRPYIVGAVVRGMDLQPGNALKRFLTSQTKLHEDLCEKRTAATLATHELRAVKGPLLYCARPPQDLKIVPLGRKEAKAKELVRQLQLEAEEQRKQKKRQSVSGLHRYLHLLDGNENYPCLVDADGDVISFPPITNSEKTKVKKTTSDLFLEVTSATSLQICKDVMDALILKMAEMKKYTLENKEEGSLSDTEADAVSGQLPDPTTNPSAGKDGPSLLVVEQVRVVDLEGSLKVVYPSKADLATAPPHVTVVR
UniProt Q9UN81: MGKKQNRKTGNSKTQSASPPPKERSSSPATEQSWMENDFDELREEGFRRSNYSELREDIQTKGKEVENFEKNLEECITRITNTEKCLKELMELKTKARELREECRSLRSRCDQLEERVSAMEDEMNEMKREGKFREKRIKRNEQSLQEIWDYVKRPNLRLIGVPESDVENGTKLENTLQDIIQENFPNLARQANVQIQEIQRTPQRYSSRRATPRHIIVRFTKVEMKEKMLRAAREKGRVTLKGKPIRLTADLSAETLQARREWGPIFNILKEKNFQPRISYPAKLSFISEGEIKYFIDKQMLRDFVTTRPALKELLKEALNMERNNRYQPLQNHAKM
UniProt P30533, whole entry, looked up: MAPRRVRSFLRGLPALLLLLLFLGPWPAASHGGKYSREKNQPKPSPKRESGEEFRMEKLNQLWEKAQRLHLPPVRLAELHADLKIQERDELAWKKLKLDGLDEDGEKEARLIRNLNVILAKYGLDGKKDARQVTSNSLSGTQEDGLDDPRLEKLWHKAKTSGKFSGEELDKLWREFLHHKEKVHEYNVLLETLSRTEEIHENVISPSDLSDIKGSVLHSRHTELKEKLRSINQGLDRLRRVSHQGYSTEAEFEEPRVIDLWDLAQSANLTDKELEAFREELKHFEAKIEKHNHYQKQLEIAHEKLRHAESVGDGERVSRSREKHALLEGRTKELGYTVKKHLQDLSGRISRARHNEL
UniProt O94898: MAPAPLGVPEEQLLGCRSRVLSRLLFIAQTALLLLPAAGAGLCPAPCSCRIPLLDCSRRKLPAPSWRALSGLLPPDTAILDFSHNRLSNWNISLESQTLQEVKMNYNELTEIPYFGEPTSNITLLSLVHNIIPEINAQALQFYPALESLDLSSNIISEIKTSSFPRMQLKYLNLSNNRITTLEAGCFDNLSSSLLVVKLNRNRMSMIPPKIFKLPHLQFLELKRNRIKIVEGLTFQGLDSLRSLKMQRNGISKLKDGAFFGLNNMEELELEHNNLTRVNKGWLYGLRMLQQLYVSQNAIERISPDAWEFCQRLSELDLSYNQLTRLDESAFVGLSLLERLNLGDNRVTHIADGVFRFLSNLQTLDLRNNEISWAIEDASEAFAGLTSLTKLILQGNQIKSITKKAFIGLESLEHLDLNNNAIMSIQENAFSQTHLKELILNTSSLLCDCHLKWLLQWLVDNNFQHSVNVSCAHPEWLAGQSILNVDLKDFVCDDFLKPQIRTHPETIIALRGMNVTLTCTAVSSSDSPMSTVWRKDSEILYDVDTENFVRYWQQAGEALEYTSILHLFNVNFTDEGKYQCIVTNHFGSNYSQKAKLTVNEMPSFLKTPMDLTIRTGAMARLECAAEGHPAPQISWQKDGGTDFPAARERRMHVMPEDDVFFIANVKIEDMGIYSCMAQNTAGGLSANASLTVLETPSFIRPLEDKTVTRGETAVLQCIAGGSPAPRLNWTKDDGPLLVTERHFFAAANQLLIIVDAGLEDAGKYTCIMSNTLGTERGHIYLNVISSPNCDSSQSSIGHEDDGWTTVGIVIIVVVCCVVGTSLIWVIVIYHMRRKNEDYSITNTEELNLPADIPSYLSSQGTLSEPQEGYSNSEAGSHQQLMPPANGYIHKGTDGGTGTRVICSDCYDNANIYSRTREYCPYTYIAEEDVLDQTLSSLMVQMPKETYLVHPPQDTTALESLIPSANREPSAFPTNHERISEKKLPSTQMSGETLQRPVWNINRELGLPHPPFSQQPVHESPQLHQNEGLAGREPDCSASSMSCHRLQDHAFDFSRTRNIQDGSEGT
UniProt O60294: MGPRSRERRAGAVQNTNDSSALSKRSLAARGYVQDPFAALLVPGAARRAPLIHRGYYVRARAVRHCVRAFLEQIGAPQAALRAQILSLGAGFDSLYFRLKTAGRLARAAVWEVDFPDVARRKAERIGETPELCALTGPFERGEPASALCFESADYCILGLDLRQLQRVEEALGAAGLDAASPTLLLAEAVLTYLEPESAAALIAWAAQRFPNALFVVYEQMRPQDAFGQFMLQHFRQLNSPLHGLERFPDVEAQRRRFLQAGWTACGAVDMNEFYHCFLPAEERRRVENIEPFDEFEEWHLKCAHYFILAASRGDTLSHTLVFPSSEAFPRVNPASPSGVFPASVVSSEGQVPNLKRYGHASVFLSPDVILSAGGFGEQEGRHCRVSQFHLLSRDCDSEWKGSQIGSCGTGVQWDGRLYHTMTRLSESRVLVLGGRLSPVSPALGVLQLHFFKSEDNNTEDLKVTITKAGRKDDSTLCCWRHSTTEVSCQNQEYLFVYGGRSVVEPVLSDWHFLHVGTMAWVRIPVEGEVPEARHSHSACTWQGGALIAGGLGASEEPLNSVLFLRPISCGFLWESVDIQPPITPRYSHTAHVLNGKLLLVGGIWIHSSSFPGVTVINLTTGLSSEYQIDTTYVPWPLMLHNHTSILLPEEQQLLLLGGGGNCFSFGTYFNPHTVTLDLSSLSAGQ
UniProt Q9NUP9: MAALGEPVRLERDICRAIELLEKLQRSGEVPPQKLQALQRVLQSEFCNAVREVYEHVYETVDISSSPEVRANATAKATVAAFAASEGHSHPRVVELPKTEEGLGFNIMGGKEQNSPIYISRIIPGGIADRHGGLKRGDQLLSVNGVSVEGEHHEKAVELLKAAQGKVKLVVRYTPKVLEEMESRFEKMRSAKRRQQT
UniProt Q6P1Q0: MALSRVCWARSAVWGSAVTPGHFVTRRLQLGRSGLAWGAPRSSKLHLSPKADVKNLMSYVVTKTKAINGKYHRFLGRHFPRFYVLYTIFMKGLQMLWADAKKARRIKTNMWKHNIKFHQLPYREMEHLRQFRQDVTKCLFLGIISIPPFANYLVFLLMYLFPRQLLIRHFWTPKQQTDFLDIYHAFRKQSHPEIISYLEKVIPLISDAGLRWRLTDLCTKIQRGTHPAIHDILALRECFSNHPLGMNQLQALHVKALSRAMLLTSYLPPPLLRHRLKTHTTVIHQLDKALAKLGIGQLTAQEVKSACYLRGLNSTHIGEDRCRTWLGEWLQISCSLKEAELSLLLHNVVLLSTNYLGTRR
UniProt Q9NT99: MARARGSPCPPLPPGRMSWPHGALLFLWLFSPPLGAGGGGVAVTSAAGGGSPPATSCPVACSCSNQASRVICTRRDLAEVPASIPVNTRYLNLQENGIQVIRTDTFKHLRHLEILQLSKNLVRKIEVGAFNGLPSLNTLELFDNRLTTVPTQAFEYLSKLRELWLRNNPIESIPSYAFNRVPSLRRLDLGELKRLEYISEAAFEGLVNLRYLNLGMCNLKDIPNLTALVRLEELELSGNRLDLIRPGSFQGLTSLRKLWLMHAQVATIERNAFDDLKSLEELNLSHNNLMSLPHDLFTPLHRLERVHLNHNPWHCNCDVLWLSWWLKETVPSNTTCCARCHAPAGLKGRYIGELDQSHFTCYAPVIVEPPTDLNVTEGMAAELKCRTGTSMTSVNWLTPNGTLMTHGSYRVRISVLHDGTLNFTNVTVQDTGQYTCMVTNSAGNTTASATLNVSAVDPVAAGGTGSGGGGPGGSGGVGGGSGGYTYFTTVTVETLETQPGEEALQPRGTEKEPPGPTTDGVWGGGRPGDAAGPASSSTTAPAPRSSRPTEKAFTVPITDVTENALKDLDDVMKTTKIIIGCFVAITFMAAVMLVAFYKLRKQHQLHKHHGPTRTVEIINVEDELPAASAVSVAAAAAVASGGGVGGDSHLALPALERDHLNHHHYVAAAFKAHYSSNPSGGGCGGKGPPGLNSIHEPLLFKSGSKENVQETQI

This is one part of the list.

Compound in the experiment: CC[C@@H]1C(=O)N(C)c2cnc(Nc3ccc(C(=O)N[C@H]4CC[C@H](N5CCN(CC6CC6)CC5)CC4)cc3OC)nc2N1C(C)C [volasertib]
As to the kind of experiment: log2 fold change, soluble protein after heating vs DMSO (PISA); higher = thermal stabilisation; K562 cells, 10 uM, 30 min; active = over 0.2 and 3.5 SD of the protein, either way, in both replicates (recomputed). Put shortly: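 K562 cells at 2×10^6 cells/mL were exposed to 10 μM compound for 30 min, then aliquots were heated for 3 min across 48°C-58°C, pooled, and extracted in PBS containing 0.5% NP-40 at 4°C. The supernatant after 21,000xg for 90 min was taken as soluble protein and measured by TMTpro 16plex LC-MS/MS with channel sums equalised. Thermal stability is reported relative to control samples, with values from duplicates. Fold changes are given on a log2 scale.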
With LAMTOR5 (UniProt O43504), the log2 fold change was inactive: 0.03. Next, LRRC59 (UniProt Q96AG4): inactive: 0.07; LGALS1 (UniProt P09382): inactive: 0.108. In the case of LIMK2 isoform 3 (UniProt P53671) it was inactive: -0.086. In the case of LIN7A (UniProt O14910) it was inactive: 0.028; in that of LRRC20 (UniProt Q8TCA0), inactive: -0.028; in that of LRRC57 (UniProt Q8N9N7), inactive: 0.001.

Take LANCL2 (UniProt Q9NS86): the log2 fold change is inactive: 0.07.

As for LMNA (UniProt P02545), the log2 fold change is inactive: -0.15. Next, LMNB2 (UniProt Q03252): inactive: -0.077; LRRC47 (UniProt Q8N1G4): inactive: 0.027; L1RE1 (UniProt Q9UN81): inactive: 0.059.

Turning to LRPAP1 (UniProt P30533), the log2 fold change was inactive: 0.066. Next, LRIG2 (UniProt O94898): inactive: -0.094; LCMT2 (UniProt O60294): inactive: -0.228. LIN7C (UniProt Q9NUP9): the log2 fold change is inactive: -0.001.

As for LETMD1 isoform 7 (UniProt Q6P1Q0), the log2 fold change was inactive: -0.068.

On to LRRC4B (UniProt Q9NT99), for which the log2 fold change was inactive: 0.115.
